Results are given in words; binding and its absence hold for the method and conditions named. Binding seen in cells or lysates may run through a third protein. A yes stands for co-enrichment or nearness to the bait. Other partners may have been found. Sequences can lack the tags named with a protein.
T1: Mora–GFP (Drosophila) (UniProt Q9VCC0)
T1 sequence: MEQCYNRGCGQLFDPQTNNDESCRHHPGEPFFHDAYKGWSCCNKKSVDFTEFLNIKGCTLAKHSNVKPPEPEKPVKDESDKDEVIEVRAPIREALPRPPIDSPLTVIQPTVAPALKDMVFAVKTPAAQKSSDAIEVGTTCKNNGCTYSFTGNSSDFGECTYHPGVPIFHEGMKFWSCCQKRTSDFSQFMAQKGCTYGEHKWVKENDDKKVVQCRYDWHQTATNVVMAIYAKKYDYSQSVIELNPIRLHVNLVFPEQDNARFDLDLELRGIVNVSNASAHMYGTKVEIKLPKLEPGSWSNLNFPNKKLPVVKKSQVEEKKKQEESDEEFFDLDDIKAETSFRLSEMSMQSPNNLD

By UniProt entry, the sequences of proteins in these tests, tags left out. Where a name states a change or a piece, a line headed by the entry shows the natural chain unless it says otherwise.
UniProt P23573: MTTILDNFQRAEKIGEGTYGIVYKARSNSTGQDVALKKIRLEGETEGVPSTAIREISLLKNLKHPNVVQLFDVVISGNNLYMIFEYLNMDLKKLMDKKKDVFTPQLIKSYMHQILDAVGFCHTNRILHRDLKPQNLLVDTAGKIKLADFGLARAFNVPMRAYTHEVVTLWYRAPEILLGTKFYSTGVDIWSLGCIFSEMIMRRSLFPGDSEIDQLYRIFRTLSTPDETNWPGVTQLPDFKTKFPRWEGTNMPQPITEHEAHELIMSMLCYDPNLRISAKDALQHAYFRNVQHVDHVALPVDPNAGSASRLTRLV
UniProt P02828: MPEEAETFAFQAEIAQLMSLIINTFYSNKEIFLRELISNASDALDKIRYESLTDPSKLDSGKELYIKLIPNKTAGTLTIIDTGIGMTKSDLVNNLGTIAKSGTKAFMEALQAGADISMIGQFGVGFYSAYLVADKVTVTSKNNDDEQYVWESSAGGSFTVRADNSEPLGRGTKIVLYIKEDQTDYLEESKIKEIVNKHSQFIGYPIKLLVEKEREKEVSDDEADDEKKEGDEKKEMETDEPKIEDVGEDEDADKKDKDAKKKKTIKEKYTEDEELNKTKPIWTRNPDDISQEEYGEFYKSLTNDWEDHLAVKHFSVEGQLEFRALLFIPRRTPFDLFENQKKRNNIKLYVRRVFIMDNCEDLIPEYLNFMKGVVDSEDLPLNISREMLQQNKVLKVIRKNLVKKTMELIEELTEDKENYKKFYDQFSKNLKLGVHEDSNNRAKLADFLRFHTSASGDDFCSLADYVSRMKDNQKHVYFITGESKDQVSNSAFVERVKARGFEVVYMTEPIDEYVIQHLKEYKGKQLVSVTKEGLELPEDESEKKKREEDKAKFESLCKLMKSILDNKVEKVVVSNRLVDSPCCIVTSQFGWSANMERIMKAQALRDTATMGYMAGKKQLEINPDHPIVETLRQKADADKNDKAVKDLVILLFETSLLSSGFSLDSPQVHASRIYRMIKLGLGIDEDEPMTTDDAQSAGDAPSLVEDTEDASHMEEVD
UniProt Q9VRQ2: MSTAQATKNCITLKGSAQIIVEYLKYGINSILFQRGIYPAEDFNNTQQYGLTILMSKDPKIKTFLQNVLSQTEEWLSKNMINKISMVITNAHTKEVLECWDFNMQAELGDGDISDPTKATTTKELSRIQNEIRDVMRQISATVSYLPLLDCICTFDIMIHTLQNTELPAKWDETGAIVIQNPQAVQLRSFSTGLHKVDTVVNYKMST
UniProt Q8I8U7: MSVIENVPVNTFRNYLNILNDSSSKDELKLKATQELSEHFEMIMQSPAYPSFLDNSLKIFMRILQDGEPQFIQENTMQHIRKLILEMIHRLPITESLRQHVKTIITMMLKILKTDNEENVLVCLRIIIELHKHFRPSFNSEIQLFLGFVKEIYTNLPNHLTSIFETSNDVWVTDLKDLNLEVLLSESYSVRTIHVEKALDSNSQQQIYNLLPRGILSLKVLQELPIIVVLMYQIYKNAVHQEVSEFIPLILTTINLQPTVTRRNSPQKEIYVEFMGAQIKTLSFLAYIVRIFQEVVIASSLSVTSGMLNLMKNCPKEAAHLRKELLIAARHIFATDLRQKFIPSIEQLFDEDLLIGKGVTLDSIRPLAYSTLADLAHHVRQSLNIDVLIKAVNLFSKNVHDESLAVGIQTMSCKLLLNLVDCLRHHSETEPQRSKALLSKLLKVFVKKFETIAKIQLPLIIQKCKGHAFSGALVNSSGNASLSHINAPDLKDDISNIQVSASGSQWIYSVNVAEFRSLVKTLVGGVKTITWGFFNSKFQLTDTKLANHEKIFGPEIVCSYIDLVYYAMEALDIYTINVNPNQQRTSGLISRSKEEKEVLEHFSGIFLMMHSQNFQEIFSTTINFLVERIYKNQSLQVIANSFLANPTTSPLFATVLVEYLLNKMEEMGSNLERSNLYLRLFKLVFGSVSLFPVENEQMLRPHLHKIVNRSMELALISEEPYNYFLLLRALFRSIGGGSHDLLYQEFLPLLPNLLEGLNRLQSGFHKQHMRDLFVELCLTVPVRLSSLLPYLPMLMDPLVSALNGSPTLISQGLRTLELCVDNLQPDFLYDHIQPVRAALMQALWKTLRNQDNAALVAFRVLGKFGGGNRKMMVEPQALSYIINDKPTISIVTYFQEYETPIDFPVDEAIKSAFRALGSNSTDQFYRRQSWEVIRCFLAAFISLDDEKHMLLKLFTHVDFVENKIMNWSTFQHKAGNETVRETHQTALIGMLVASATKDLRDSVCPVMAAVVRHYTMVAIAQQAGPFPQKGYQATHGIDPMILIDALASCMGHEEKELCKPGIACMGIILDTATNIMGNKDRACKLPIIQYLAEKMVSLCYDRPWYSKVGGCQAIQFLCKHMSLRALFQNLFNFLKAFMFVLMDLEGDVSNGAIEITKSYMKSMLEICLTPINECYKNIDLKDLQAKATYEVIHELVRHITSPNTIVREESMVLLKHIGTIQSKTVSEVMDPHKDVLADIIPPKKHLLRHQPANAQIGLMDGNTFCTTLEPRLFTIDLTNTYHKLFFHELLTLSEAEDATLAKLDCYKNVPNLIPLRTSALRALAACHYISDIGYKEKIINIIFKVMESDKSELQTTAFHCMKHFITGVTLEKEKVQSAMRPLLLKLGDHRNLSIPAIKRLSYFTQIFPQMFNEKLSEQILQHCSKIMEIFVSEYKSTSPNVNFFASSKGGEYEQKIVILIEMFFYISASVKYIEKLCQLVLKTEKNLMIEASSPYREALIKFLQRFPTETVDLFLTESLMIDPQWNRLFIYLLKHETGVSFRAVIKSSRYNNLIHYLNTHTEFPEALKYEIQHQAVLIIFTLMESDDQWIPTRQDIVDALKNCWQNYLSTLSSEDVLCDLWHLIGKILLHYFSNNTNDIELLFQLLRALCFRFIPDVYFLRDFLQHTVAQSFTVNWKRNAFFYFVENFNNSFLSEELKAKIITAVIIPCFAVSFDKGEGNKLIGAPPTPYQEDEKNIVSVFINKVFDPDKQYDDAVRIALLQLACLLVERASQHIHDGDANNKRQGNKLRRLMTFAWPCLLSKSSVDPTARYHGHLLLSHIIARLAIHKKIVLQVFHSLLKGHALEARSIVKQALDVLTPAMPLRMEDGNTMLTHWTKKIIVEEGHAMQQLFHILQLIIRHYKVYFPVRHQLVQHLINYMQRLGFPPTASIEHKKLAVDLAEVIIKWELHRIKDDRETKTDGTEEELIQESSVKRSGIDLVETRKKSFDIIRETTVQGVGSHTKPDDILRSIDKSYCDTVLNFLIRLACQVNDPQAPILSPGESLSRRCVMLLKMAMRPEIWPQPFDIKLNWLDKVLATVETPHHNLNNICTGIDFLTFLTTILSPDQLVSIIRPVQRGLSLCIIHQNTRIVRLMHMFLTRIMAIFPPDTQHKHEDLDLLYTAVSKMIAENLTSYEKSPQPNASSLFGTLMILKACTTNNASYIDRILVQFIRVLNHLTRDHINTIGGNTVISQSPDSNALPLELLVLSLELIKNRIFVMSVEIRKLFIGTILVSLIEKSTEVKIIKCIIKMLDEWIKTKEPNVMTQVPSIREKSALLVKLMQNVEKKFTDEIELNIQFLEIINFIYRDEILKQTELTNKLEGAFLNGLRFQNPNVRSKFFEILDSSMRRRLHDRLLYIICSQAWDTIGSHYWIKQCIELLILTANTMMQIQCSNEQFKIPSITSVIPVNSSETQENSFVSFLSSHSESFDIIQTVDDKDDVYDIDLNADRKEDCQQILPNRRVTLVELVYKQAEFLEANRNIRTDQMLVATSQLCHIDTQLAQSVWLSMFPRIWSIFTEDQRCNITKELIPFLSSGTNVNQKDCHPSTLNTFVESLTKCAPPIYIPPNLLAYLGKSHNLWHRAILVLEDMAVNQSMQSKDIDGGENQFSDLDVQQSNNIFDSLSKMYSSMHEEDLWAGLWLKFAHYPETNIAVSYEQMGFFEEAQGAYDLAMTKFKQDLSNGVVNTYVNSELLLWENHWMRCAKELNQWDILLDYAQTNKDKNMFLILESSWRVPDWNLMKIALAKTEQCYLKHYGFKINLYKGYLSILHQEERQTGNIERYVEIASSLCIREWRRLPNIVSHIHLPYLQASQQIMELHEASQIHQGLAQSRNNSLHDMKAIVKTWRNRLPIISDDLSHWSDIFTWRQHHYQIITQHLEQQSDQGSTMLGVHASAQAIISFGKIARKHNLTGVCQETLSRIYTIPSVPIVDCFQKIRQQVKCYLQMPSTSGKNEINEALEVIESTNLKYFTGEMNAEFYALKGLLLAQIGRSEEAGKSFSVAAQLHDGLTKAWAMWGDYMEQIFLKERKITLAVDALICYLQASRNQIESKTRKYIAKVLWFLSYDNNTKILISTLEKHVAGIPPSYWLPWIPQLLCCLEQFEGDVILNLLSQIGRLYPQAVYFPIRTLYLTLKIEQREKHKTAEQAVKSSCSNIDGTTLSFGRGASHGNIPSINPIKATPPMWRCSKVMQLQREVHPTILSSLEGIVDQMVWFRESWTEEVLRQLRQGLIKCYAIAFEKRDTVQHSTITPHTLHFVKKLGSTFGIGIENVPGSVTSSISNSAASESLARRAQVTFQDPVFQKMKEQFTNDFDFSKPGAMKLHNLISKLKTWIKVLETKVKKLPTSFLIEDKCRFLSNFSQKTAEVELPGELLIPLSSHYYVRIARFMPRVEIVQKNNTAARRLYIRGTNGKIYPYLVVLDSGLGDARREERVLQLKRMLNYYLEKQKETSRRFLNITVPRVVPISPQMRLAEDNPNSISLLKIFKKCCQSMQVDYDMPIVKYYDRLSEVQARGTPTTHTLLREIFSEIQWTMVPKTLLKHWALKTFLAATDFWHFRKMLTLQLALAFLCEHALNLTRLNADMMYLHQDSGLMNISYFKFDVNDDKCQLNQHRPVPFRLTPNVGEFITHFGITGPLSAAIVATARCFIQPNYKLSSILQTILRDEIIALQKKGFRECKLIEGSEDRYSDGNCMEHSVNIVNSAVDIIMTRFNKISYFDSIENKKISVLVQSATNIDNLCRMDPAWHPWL
UniProt Q9VH07: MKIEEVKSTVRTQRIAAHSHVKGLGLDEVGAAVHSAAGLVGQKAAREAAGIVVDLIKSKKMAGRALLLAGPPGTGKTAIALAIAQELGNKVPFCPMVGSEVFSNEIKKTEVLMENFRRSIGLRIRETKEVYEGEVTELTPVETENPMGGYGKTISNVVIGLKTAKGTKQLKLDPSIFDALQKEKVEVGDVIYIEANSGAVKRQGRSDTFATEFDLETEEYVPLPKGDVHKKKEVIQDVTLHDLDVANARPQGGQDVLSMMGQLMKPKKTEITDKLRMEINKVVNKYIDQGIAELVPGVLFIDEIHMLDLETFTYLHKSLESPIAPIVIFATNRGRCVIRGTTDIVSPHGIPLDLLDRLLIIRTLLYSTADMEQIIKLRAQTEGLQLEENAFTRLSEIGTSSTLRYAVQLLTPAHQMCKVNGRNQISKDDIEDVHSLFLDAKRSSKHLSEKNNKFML


biological target: T1, Mora–GFP (Drosophila); test: affinity purification with mass spectrometry; clarified extract of 0–3 h embryos expressing Mora–GFP incubated with GFP–TRAP-A beads 2 h at 4°C in C buffer (50 mM HEPES pH 7.4, 50 mM KCl, 1 mM MgCl2, 1 mM EGTA, 0.1% IGEPAL CA-630); hits filtered against a database of non-specific interactors; two experiments

| binding | Molecule |
| --- | --- |
| binds | Cdk2 (from UniProt P23573 1-314) |
| binds | Hsp83 (from UniProt P02828 1-717) |
| binds | PPD3 (Drosophila (endogenous in embryos)) |
| binds | ProsBeta5 (Drosophila (endogenous in embryos)) |
| binds | Mad2 (from UniProt Q9VRQ2) |
| binds | Vap33 (Drosophila (endogenous in embryos)) |

The next lines start with the molecule.

| Molecule | binding |
| --- | --- |
| CG16908 (Drosophila (endogenous in embryos)) | binds |
| Nipped-A (from UniProt Q8I8U7 1-3790) | binds |
| Pontin (from UniProt Q9VH07 1-456) | binds |

biological target: T1, Mora–GFP (Drosophila); test: as above; remark: another data set of the same source

| binding | Molecule |
| --- | --- |
| binds | NudC (protein, UniProt Q9VVA6 1-332) MAAEEGKFDNILLAVAEKHHGGVPEFLGTLASFLRRKTDFFTGAKQTEWEKLLLDVFNKESKLAVTENYEKIKAREASQRLKAEKERAERKARKQEIDDNKICDITDEEAAAIIKEEETKKRQQLLDSAGGEPSASNRDGISKPIEKVDDESDKSELGKLMPNAGNGCTLENYTWTQTLEEVELKIPFNLTFGLRARDLVISIGKKSLKVGIKGQTPIIDGELCGEVKTEESVWVLQDSKTVMITLDKINKMNWWSRLVTTDPEISTRKINPESSKLSDLDGETRSMVEKMMYDQRQKELGLPTSEDRKKQDILEKFKQQHPEMDFSKCKFN |
| binds | FKBP59 (protein, UniProt Q9VL78 1-439) MPEGNKIDLSGDGGVLKEILKEGTGTETPHSGCTVSLHYTGRLVDGTEFDSSLSRNEPFEFSLGKGNVIKAFDMGVATMKLGERCFLTCAPNYAYGAAGSPPAIPPDATLIFELEMLGWKGEDLSPNQDGSIDRTILEASDKKRTPSDGAFVKAHISGSFEGRVFEDRDVEFDYGEGKAIGIIDGVEIALEKMNVGETSRIKIQAKYAFGAKGNEEFKIPPNATVEYTVKLVDCGKGLEEWKLSDEERLAEAKVYKEKGTNYFKKENWALAIKMYTKCKNILPTTVHTNEEVKKIKVATHSNIALCHQKSNDHFEAKQECNEVLALDKNNVKALYRRGQCNLTINELEDALEDFQKVIQLEPGNKAAANQVIICKQKLKESKNKEKKLYANMFTKLAANDKETEPPRETDVLSKCGEWSEEDAKREAELTLERDNIIMI |

| Molecule | binding |
| --- | --- |
| Bdbt (protein, UniProt Q9VDE4 1-286) MDWYVGTEWEDKNRGLAKKVIGLQFTEMDKPTIISTVEFSVNKKATNLGGRPSKYLVSDESATYPQKHSLEMGTSLTAVDCYLELLLQQFVPGETAACSITTKTGERIEFELKLEKIVKNTQVEKLSAAEIYEVALRLKESGVATFKTFPKFAFDYFVRAAKLLITYKPFDKLTKKTNGINGQAVEELFIQIQTNLAACLLQEKRYEHVIYHTQFVETEESPSEKSIYRRALAYYHLKEFAKAQATIERMPNYEEKREFSKLRDNIAVSWKDSKAHYKEVVQRMFS | binds |

From paper PMC6983718
